# Measured values reported in the supplement of paper PMC11098740.
# Structures can show the parent of a compound that is named as a salt. The list shows a part of the results. Repeats are few or missing, and single values can be far off.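 The assay uses a mixed pool of 41 HAP1 clones in which 61 cancer-associated proteins bear intron-inserted fluorescent tags, and clones are distinguished by image pattern. Results are compared against DMSO-treated control wells, and the BRD4 degrader dBET6 is the positive control.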
# Molecular target: BRD4 (intron 10 mScarlet tag, HAP1) (UniProt O60885)
# Experiment: BRD4 median nuclear fluorescence intensity change vs DMSO (log2 fold change); higher = more BRD4 protein
# Conditions: 6 h
row,Compound,BRD4 median nuclear fluorescence intensity change (log2)
1,Nc1nnc(-c2cccc(Cl)c2Cl)c(N)n1 [lamotrigine] (10 µM),-0.0208
2,S=P(N1CC1)(N1CC1)N1CC1 [thiotepa] (20 µM),0.292
3,NNC(=O)c1ccncc1 [isoniazid] (10 µM),0.0232
4,N[C@@H](CCC(=O)N[C@@H](CSN=O)C(=O)NCC(=O)O)C(=O)O [nitrosoglutathione] (10 µM),0.0217
5,Cc1nc(=O)c2cc(CN(C)c3ccc(C(=O)N[C@@H](CCC(=O)O)C(=O)O)s3)ccc2[nH]1 [raltitrexed] (20 µM),0.0928
6,CC1(C)NC(=O)N(c2ccc([N+](=O)[O-])c(C(F)(F)F)c2)C1=O [nilutamide] (20 µM),0.0336
7,CC[N+](C)(C)Cc1ccccc1Br [bretylium tosylate] (17 µM),0.0379
8,C1=N/C2=N/c3ccc(OCCN4CCCC4)c(c3)COC/C=C/COCc3cccc(c3)C(=C1)N2 [pacritinib] (10 µM),-0.0445
9,Cc1cc2cc3c(C)cc(=O)oc3c(C)c2o1 [trioxsalen] (10.0007 µM),0.0521
10,CCS(=O)(=O)CCn1c([N+](=O)[O-])cnc1C [tinidazole] (10 µM),0.00376
11,CN(C)[C@@H]1C(O)=C(C(N)=O)C(=O)[C@@]2(O)C(O)=C3C(=O)c4c(O)cccc4[C@@](C)(O)[C@H]3C[C@@H]12 [tetracycline] (10 µM),0.0167
12,CCc1c2c(nc3ccc(O)cc13)-c1cc3c(c(=O)n1C2)COC(=O)[C@]3(O)CC [7-ethyl-10-hydroxy-camptothecin] (10 µM),-0.0581
13,CC(C)(Sc1cc(C(C)(C)C)c(O)c(C(C)(C)C)c1)Sc1cc(C(C)(C)C)c(O)c(C(C)(C)C)c1 [probucol] (10 µM),0.0572
14,O=C1CC2(CCCC2)C(O)C(=O)N1CCCCN1CCN(c2ncccn2)CC1 (centres undefined) [6-hydroxybuspirone] (10 µM),0.184
15,CCCCC(F)(F)[C@@]1(O)CC[C@H]2[C@@H](CC(=O)[C@@H]2CCCCCCC(=O)O)O1 [lubiprostone] (10 µM),0.0367
16,CN(C)CC[C@@H](c1ccc(Cl)cc1)c1ccccn1 [dexchlorpheniramine] (10.00011514 µM),0.0657
17,Cc1ccccc1C(=O)Nc1ccc(C(=O)N2CCCC(O)c3cc(Cl)ccc32)c(C)c1 (centres undefined) [tolvaptan] (10 µM),0.0926
18,CC(=O)Nc1nnc(S(N)(=O)=O)s1 [acetazolamide] (10 µM),0.0453
19,CNNCc1ccc(C(=O)NC(C)C)cc1 [procarbazine] (20 µM),0.122
20,Cc1[nH]c(=O)c(C#N)cc1-c1ccncc1 [milrinone] (10.0021 µM),-0.031

row,Compound,BRD4 median nuclear fluorescence intensity change (log2)
1,C[C@]1(c2nc3c(C(N)=O)cccc3[nH]2)CCCN1 [veliparib] (10 µM),0.0433
2,CNC1(C)C2CCC(C2)C1(C)C (centres undefined) [mecamylamine] (12.2 µM),0.0335
3,OCCN1C[C@H](O)[C@@H](O)[C@H](O)[C@H]1CO [miglitol] (10 µM),0.00264
4,CC1=C(/C=C/C(C)=C/C=C/C(C)=C/C(=O)O)C(C)(C)CCC1 [tretinoin] (20 µM),-0.0242
5,O=C(O)c1cnccn1 [pyrazinoic acid] (10 µM),0.0796
6,CC[C@@H](CO)NCCN[C@@H](CC)CO [ethambutol] (10 µM),0.00609
7,Cc1cc(Nc2ncc(Cl)c(Nc3ccccc3S(=O)(=O)C(C)C)n2)c(OC(C)C)cc1C1CCNCC1 [ceritinib] (10 µM),0.0564
8,N=C(N)NCC1COC2(CCCCC2)O1 (centres undefined) [guanadrel] (10 µM),0.0889
9,NC(=O)NO [hydroxyurea] (20 µM),0.071
10,COc1cc2nccc(Oc3ccc(NC(=O)C4(C(=O)Nc5ccc(F)cc5)CC4)cc3)c2cc1OC [cabozantinib] (20 µM),-0.00306
11,N=C(N)NC(=O)c1nc(Cl)c(N)nc1N [amiloride] (9.99961 µM),0.0486
12,Nc1ccn([C@@H]2O[C@H](CO)[C@@H](O)[C@@H]2O)c(=O)n1 [cytarabine] (0.316228 µM),0.187
13,Cc1nnc(C(C)C)n1C1C[C@H]2CC[C@@H](C1)N2CC[C@H](NC(=O)C1CCC(F)(F)CC1)c1ccccc1 (stereo in doubt) [maraviroc] (10 µM),0.0405
14,COc1ccc2c3c1O[C@H]1C[C@@H](O)C=C[C@@]31CCN(C)C2 [galantamine] (10 µM),0.0662
15,Nc1ncn([C@@H]2O[C@H](CO)[C@@H](O)[C@H]2O)c(=O)n1 [azacitidine] (10 µM),-0.201
16,CC[C@@]1(O)C(=O)OCc2c1cc1n(c2=O)Cc2cc3c(CN(C)C)c(O)ccc3nc2-1 [topotecan hydrochloride hydrate] (20 µM),-0.136
17,CCCCN(CCCC)CC(O)c1cc(Cl)cc2c1-c1ccc(Cl)cc1/C2=C/c1ccc(Cl)cc1 (centres undefined) [lumefantrine] (10 µM),0.128
18,CCC(C)n1ncn(-c2ccc(N3CCN(c4ccc(OCC5COC(Cn6cncn6)(c6ccc(Cl)cc6Cl)O5)cc4)CC3)cc2)c1=O (centres undefined) [itraconazole] (10 µM),0.0315
19,CN[C@H]1CC[C@@H](c2ccc(Cl)c(Cl)c2)c2ccccc21 [sertraline] (9.99956 µM),0.04

# Random excerpt: 2 records from the list, in no set order.
row,Compound,BRD4 median nuclear fluorescence intensity change (log2)
8,N=C(N)NCC1COC2(CCCCC2)O1 (centres undefined) [guanadrel] (10 µM),0.0889
6,CC[C@@H](CO)NCCN[C@@H](CC)CO [ethambutol] (10 µM),0.00609
